The experiment addresses T1, human cANGPTL4 (C-terminal fragment of Angiopoietin-like 4 protein) (human) (UniProt Q9BY76).
T1 sequence (looked up): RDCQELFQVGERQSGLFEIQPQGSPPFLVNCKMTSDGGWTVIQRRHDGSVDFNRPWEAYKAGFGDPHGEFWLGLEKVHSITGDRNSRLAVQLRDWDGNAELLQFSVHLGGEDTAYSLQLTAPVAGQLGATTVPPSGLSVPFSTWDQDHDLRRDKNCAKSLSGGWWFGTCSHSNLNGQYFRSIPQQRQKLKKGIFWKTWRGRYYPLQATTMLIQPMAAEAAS
Description: indirect ELISA and SPR on human cANGPTL4. (In general: In an ELISA, binding on a coated surface is turned into a signal by an enzyme label.)

No constants are given. Whether binding was seen depends on the method and setting. Some entries that bind do so weakly or less than the wild type.

B1: Antuzumab 1 (antibody, V domains shown)
VH: QVTLKESGPTLVKPTQTLTLTCTFSGFSLSTSGMGVGWIRQPPGKALEWLAHIWWDDDKYYNPSLKSRLTISKDTSKNQVVLTMTNMDPVDTATYYCARKDYGSSYDYWGQGTTVTVSS
VL: DIVMTQSPLSLPVTPGEPASISCKASQSVDYDGDSYLNWYLQKPGQSPRLLIYTASNLESGVPDRFSGSGSGTDFTLKISRVEAEDVGVYYCFQSNEDPWTFGQGTKLEIK
notes: Humanized monoclonal antibody made in CHO cells; also called ANG49; ANGH3 + ANGK3
As for B1, the binding entry is recorded as “binds”.

B2: Antuzumab 3 (antibody, V domains shown)
VH: QITLKESGPTLVKPTQTLTLTCTFSGFSLSTSGMGVGWIRQPPGKALEWLAHIWWDDDKYYNPSLKSRLTITKDTSKNQVVLTMTNMDPVDTATYYCARKDYGSSYDYWGQGTLVTVSS
VL: DIVMTQSPDSLAVSLGERATINCKASQSVDYDGDSYLNWYQQKPGQPPKLLIYTASNLESGVPDRFSGSGSGTDFTLTISSLQAEDVAVYYCQQSNEDPWTFGQGTKVEIK
notes: Humanized monoclonal antibody made in CHO cells; also called ANG27; ANGH1 + ANGK1
Turning to B2, the binding result is “binds”.

The values are drawn from patent US20230090156A1 (NANYANG TECHNOLOGICAL UNIVERSITY, published 2023).
